Reference: PubChem BioAssay AID1508600 (Functional Genomics Laboratory (NCATS/FGL), 2020)
Out of some 53,000 sequences screened, about 3,700 (7%) were called active.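 The calls were made as follows: active = gene knockdowns whose robust z-score for IL-1 alpha signal is at least 2 or at most -2, so actives lie on both sides; inactive = the rest.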 The list shows a part of the results.

Assay: Components of the Cytosolic LPS Sensing Pathway: Gene Identification via Genome-wide siRNA Screen;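 also: robust z of the log signal after scaling to non-targeting control siRNA wells of the plate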
Conditions: RAW264.7 macrophages, IL-1a HTRF, actives lie on both sides, screened at 100 nM (by protocol), cells primed 5 h with Pam3CSK4 first
Outline: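 RAW264.7 mouse macrophages reverse-transfected with single siRNAs (100 nM final) for 48h, primed with Pam3CSK4 for 5 hours, then transfected with LipidA for 24 hour. Supernatant IL-1a read by HTRF; values normalized to negative-control median, log-transformed robust z-scores.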

**Q.** For GGAGCAUUGAUAUAUGUCATT against Rragc, which z-score is on record?
**A.** inactive: -0.684

**Q.** Which z-score does the source give for CGUGGGUAGGCUUAGAGAUTT against Hgh1 here?
**A.** inactive: -0.696

**Q.** For GGGAUAGAGGCAGUUUUGATT against Rras2, which z-score is on record?
**A.** inactive: -0.593

**Q.** For CGACGCAUUGAGGCAAUCUTT against Camsap3, which z-score is on record?
**A.** inactive: -0.483

**Q.** Which z-score does the source give for GGGAAGGAUUAUGUCAAAUTT against Kit here?
**A.** inactive: 0.328

**Q.** Which z-score does the source give for GGUCAGAAUAUCCUCUUUUTT against Serpina9 here?
**A.** inactive: -0.507

**Q.** For GGCUAAACUCACAACACUCTT against Nlrc5, which z-score is on record?
**A.** inactive: 0.595

**Q.** For GGCUGAACAGAAUUAAGAATT against Surf6, which z-score is on record?
**A.** inactive: 0.042

**Q.** For GCAAGAUGCACCUAGUGACTT against Cish, which z-score is on record?
**A.** inactive: -1.55

**Q.** For GCUCGUCUCAGACUUAUUUTT against Il15, which z-score is on record?
**A.** inactive: 1.96

**Q.** Which z-score does the source give for CCGUGUCAUUUGGAGAGCUTT against Ndufaf5 here?
**A.** inactive: -0.248

**Q.** With GCCAUACAGGUAGCUUCUGTT against Tradd as the sequence, how does the z-score read?
**A.** inactive: -0.396

**Q.** Which z-score does the source give for GGUUUACCCAUCUUGGCCATT against Vwf here?
**A.** inactive: -0.501

**Q.** With GGCUGGUGUGACAUUGCCUTT against Pglyrp3 as the sequence, how does the z-score read?
**A.** inactive: 0.197

**Q.** Which z-score does the source give for CCAUUGUUUGUAAUCUAGATT against Elmod3 here?
**A.** inactive: -0.149

**Q.** For GCAACAAAGGCUUUCCCUATT against Trarg1, which z-score is on record?
**A.** inactive: -0.794

**Q.** For GGUGGUGAAGCUAAAGCAGTT against Prkaca, which z-score is on record?
**A.** inactive: -1.58

**Q.** With GGCCAAGUGCACCAUCCUATT against Gng13 as the sequence, how does the z-score read?
**A.** inactive: -0.852

**Q.** Which z-score does the source give for GGAAGGUGUCUGUAAUAUATT against Slamf9 here?
**A.** inactive: -0.0451

**Q.** For GGAAACUUUUGGGAGAAAUTT against Itpr2, which z-score is on record?
**A.** inactive: 0.166

**Q.** With CGUGUGAAGAAAAUUGAUGTT against Mmp27 as the sequence, how does the z-score read?
**A.** inactive: 0.568

**Q.** Which z-score does the source give for GGAAACCAUCAAAGUAUGGTT against Ndufa6 here?
**A.** inactive: 1.23

**Q.** Which z-score does the source give for GGCGUGACUUCCACAAGAGTT against Fabp4 here?
**A.** inactive: -0.14

**Q.** Which z-score does the source give for CCACUUGUUGAUCAAGAGATT against Adamts15 here?
**A.** inactive: 0.79

**Q.** With GCCAGCCAUUGUACCAUGATT against Trappc12 as the sequence, how does the z-score read?
**A.** inactive: 1.4

**Q.** For GCACUAAGAAAUGGAUCUATT against Igbp1, which z-score is on record?
**A.** inactive: 0.565

**Q.** Which z-score does the source give for GGAAAGAAGCAGCGGACUUTT against Nme7 here?
**A.** active: 2.29

**Q.** For GGAAAGCUACAGAACCAUUTT against Tm6sf1, which z-score is on record?
**A.** inactive: -0.652

**Q.** With GGGUGGCUUUCUAAUGUUGTT against Olfr362 as the sequence, how does the z-score read?
**A.** inactive: 0.393
